Like-named read-outs stand apart in the source and are kept apart here. This is one part of the list.
Test system: T1, CTL2-GFP (C. trachomatis L2/434/Bu, GFP-expressing)
T1 construct: L2/434/Bu, GFP-expressing
Set-up: species or system HeLa; Intracellular C. trachomatis growth in HeLa cells, bulk GFP fluorescence relative to DMSO
Conditions: bulk GFP, single well, 28.5 h, 10 µM, inhibitor

Row | SMILES | % of control remaining [%] | % of control remaining (Bulk GFP fluorescence) [%]
1 | CC(=O)Nc1nnc(SCC(=O)N2CCN(c3ccc(Cl)cc3)CC2)s1 [CBK307384] | 142.117 | 
2 | CCN1CCCN(c2cc(OCc3ccc(Cl)c(Cl)c3)ncn2)CC1 [CBK083786] | 131.79 | 
3 | C=Cn1cc(CN2CCC(O)(c3ccccc3C)CC2)c(C)n1 [CBK282580] | 125.13 | 
4 | FC(F)(F)Oc1ccc(-c2cc(NCCc3ccccn3)ncn2)cc1 [CBK037732] | 128.816 | 
5 | CCc1csc(CCNc2ccc(-c3nc(C4CC4)no3)cn2)n1 [CBK306608] | 87.5839 | 
6 | Cc1nc2c(s1)C[C@@H]1[C@](C)(CO)[C@H](O)CC[C@@]1(C)[C@@H]2CC(=O)O [CBK289571] | 120.839 | 
7 | N#C/C(=C\C=C\c1ccc([N+](=O)[O-])cc1)c1nc(-c2cc3cc([N+](=O)[O-])ccc3oc2=O)cs1 [CBK262357] | 127.784 | 
8 | Cc1ncc(C(O)c2ccc(Cl)cc2)c2c1OC(C)(C)OC2 (stereo not shown) [CBK010749] | 108.972 | 
9 | O=C(O)c1ccc(Cl)c(S(=O)(=O)Nc2ccc(I)cc2)c1 [CBK296132] | 138.96 | 
10 | COc1ccc([N+](=O)[O-])cc1NC(=O)c1cc(-c2cccnc2)nc2ccc(C)cc12 [CBK267757] | 126.98 | 
11 | O=C(O)CCN1CCC2(CCN(C(=O)c3cc(F)c(F)cc3F)C2)C1 (stereo not shown) [CBK137123] | 91.664 | 
12 | CC(=O)c1ccc(-c2nccnc2N[C@@H]2CCN(Cc3ccccc3)C2)s1 [CBK036981] | 100.533 | 
13 | CC1OCCC12CN(c1cc(CO)c(F)cn1)CCO2 (stereo not shown) [CBK304775] | 119.341 | 
14 | O=C(NCCn1nc(-c2cccs2)oc1=O)C1CCCCC1 [CBK282343] | 99.1846 | 
15 | Oc1cc2cccnc2nc1-c1ccc2c(c1)CCO2 [CBK073698] | 105.337 | 
16 | CC(=O)N1CC[C@H]2NC(=O)CNC(=O)C3(CCCC[C@H]2C1)CCNCC3 [CBK292142] | 122.633 | 
17 | O=C(c1ccc[nH]1)N1Cc2ccccc2C1 [CBK200319] | 196.134 | 
18 | O=C(NCc1cccs1)C1(Cc2ccccc2-c2ccc(F)c(F)c2)CCOCC1 [CBK286417] | 116.852 | 
19 | Cc1cccc(NC(=O)NCCCn2c(-c3ccncc3)nc3cccnc32)c1 [CBK288580] | 129.061 | 
20 | COc1ccc(N2C(=O)c3ccc(C(=O)Nc4ccccc4C(=O)O)cc3C2=O)cc1O [CBK262833] | 124.236 | 
21 | O=c1c2c3nc4ccccc4nc3n(CCc3ccccc3)c2ncn1Cc1ccco1 [CBK269502] | 97.8142 | 
22 | c1cnc2[nH]c(C3CCOCC3)c(CN3CCSCC3)c2c1 [CBK284688] | 129.134 | 
23 | Cc1c(C)n(Cc2ccccc2)c2ccc(C(=O)OCCCN(C)C)cc12 [CBK087693] | 93.0699 | 
24 | Cc1ccc(O)c(CN[C@@H]2CCC[C@H]2Cc2cc(C)no2)c1 [CBK284936] | 126.79 | 
25 | Cc1ccc2[nH]c(=O)c(CNc3ccc(-c4nc5cc(C)ccc5[nH]4)cc3)cc2c1 [CBK286161] | 108.364 | 
26 | O=C(NCc1ccc(-c2csnn2)cc1)c1ccco1 [CBK149289] | 101.663 | 
27 | COc1ccc(N(CC(=O)NC2CC3CCC2C3)S(=O)(=O)c2ccc(C)cc2)cc1 (stereo not shown) [CBK266574] | 115.623 | 

Filtered by structure, those above containing four or more nitrogen atoms.
Row | SMILES | % of control remaining [%] | % of control remaining (Bulk GFP fluorescence) [%]
1 | CC(=O)Nc1nnc(SCC(=O)N2CCN(c3ccc(Cl)cc3)CC2)s1 [CBK307384] | 142.117 | 
2 | CCN1CCCN(c2cc(OCc3ccc(Cl)c(Cl)c3)ncn2)CC1 [CBK083786] | 131.79 | 
4 | FC(F)(F)Oc1ccc(-c2cc(NCCc3ccccn3)ncn2)cc1 [CBK037732] | 128.816 | 
5 | CCc1csc(CCNc2ccc(-c3nc(C4CC4)no3)cn2)n1 [CBK306608] | 87.5839 | 
7 | N#C/C(=C\C=C\c1ccc([N+](=O)[O-])cc1)c1nc(-c2cc3cc([N+](=O)[O-])ccc3oc2=O)cs1 [CBK262357] | 127.784 | 
10 | COc1ccc([N+](=O)[O-])cc1NC(=O)c1cc(-c2cccnc2)nc2ccc(C)cc12 [CBK267757] | 126.98 | 
12 | CC(=O)c1ccc(-c2nccnc2N[C@@H]2CCN(Cc3ccccc3)C2)s1 [CBK036981] | 100.533 | 
16 | CC(=O)N1CC[C@H]2NC(=O)CNC(=O)C3(CCCC[C@H]2C1)CCNCC3 [CBK292142] | 122.633 | 
19 | Cc1cccc(NC(=O)NCCCn2c(-c3ccncc3)nc3cccnc32)c1 [CBK288580] | 129.061 | 
21 | O=c1c2c3nc4ccccc4nc3n(CCc3ccccc3)c2ncn1Cc1ccco1 [CBK269502] | 97.8142 | 
25 | Cc1ccc2[nH]c(=O)c(CNc3ccc(-c4nc5cc(C)ccc5[nH]4)cc3)cc2c1 [CBK286161] | 108.364 | 

Two entries drawn at random from the list so far:
Row | SMILES | % of control remaining [%] | % of control remaining (Bulk GFP fluorescence) [%]
9 | O=C(O)c1ccc(Cl)c(S(=O)(=O)Nc2ccc(I)cc2)c1 [CBK296132] | 138.96 | 
11 | O=C(O)CCN1CCC2(CCN(C(=O)c3cc(F)c(F)cc3F)C2)C1 (stereo not shown) [CBK137123] | 91.664 | 

(continued)

Row | SMILES | % of control remaining [%] | % of control remaining (Bulk GFP fluorescence) [%]
28 | CCn1cc(C(=O)N2CCN(Cc3ccco3)C[C@@H]2C(C)C)cn1 [CBK284307] | 115.696 | 
29 | COC(=O)c1c(NC(=S)NCc2ccccn2)sc2c1CCC2 [CBK267090] | 120.311 | 
30 | CCOC(=O)CSC1=NNC(C)(c2c(O)c3ccccc3n(CC)c2=O)N1 (stereo not shown) [CBK009370] | 118.596 | 
31 | CC(=O)Nc1ccc(N2C(=O)CSC23C(=O)Nc2ccccc23)cc1 (stereo not shown) [CBK095916] | 110.308 | 
32 | Cn1ncc(N2CCC(CNC(=O)COc3cccc(F)c3)C2)cc1=O (stereo not shown) [CBK307692] | 103.14 | 
33 | CC(=O)c1cccc(NC(=O)Cn2nc(N3CCSCC3)ccc2=O)c1 [CBK307625] | 153.13 | 
34 | CCCCC(c1cccnc1)N(C)C(=O)c1ccnc(-n2cnnc2)c1 (stereo not shown) [CBK306786] | 144.651 | 
35 | Cc1cccc(NC(=O)c2ccccc2NS(=O)(=O)c2ccc(F)c(F)c2)c1 [CBK113810] | 114.607 | 
36 | O=C(Nc1ccccc1N1CCN(C(=O)c2ccccc2)CC1)c1cccnc1 [CBK269948] | 91.8164 | 
37 | Cc1ccccc1CNC(=O)CCSc1ccc(Cl)cc1 [CBK264040] | 126.472 | 
38 | COCCn1c(=O)n(CC=C(C)C)c2cccnc21 [CBK283534] | 109.039 | 
39 | COc1ccc(Cl)cc1N(CC(=O)Nc1ccccc1C(=O)O)S(C)(=O)=O [CBK264137] | 100 | 
40 | CC1=CC(C)C(C(=O)O)C(C(=O)N2CCN(C)CC2)C1 (stereo not shown) [CBK027311G] |  | 108.99
41 | CCOC(=O)c1[nH]c2ccccc2c1NC(=O)c1ccc(Cl)cc1Br [CBK160140] | 121.121 | 
42 | Cn1cncc1CN(CCc1ccccc1)Cc1ccncc1 [CBK282992] | 116.352 | 
43 | CCOC(=O)c1sc(-c2cccc(C)n2)nc1O [CBK081083] | 115.926 | 
44 | COc1ccccc1NC(=O)C1CN(S(=O)(=O)c2ccccc2)CCN1S(=O)(=O)c1ccccc1 (stereo not shown) [CBK262673] | 112.017 | 
45 | O=C(c1nc2ccccn2c1CN1CCCC(O)C1)N1CCOCC1 (stereo not shown) [CBK307237] | 99.7585 | 
46 | c1ccc(CCN2CCN(CC3COc4ccccc4O3)CC2)cc1 (stereo not shown) [CBK138342] | 116.678 | 
47 | CCCCn1c(SCC(=O)c2cc(C)n(CCc3ccc(OC)cc3)c2C)n[nH]c1=O [CBK295351] | 132.309 | 
48 | CCC(NS(=O)(=O)c1ccc(OC)cc1)C(=O)O (stereo not shown) [CBK264509] | 127.104 | 
49 | Cc1cccc(C)c1NC(=O)CN1CCN(c2nccnc2OCC2COc3ccccc3O2)CC1 (stereo not shown) [CBK082801T] | 79.7318 | 
50 | Cn1cc(C(=O)Nc2ccc3c(c2)CN(Cc2ccccc2)C3)cn1 [CBK281838] | 147.645 | 
51 | Cc1cc(C(=O)NCc2ccc(C(=O)O)cc2)no1 [CBK268108] | 121.013 | 
52 | CC(CCCC(C)(C)O)NS(=O)(=O)c1ccc(-c2ccon2)s1 (stereo not shown) [CBK062466] | 111.353 | 
53 | Cc1ccnc(-n2sc3ccccc3c2=O)n1 [CBK116499] | 81.6449 | 
54 | CCc1cccc(CN2CCC(CNC(=O)Nc3ccc(Cl)cc3)CC2)c1 [CBK269151] | 138.323 | 

Row | SMILES | % of control remaining [%] | % of control remaining (Bulk GFP fluorescence) [%]
55 | COc1ccc(S(=O)(=O)NCC(=O)O)cc1OC [CBK034454] | 165.253 | 
56 | COc1ccc(C(CC(=O)O)CC(=O)O)cc1OC [CBK263545] | 103.393 | 
57 | CNC(=O)CN1C(=O)CC2(C1=O)C(=O)N(C)c1ccc(OC)cc12 (stereo not shown) [CBK075190] | 122.469 | 
58 | Cc1ccc(Nc2cc(-c3cccc4oc5ccccc5c34)ncn2)cc1NS(C)(=O)=O [CBK091150] | 94.7303 | 
59 | O=C(Nc1ccc(OCc2ccccc2)cc1)c1cnc2n(c1=O)CCS2 [CBK287378] | 125.436 | 
60 | CCC(c1ccc(F)cc1F)N1CCN(Cc2nc(C)no2)CC1 (stereo not shown) [CBK304032] | 119.765 | 
61 | Cc1ccnc(NC(=O)C2CCCN(C(=O)OC(C)(C)C)C2)c1 (stereo not shown) [CBK305875] | 131.144 | 
62 | Cc1cc2ccccc2n2c(SCC(=O)Nc3nsc(-c4ccccc4)n3)nnc12 [CBK265673] | 96.1643 | 
63 | Cc1sc2nc(N)c(C(=O)NC(C)C)cc2c1C [CBK269259] | 134.747 | 
64 | O=c1nc(CN2CCN(c3ncccn3)CC2)[nH]c2ccccc12 [CBK269918] | 109.844 | 
65 | Cc1nn(C)c(Cl)c1S(=O)(=O)Nc1ccc2cn[nH]c2c1 [CBK067141] | 114.451 | 
66 | COc1cc(/C=N/NC(=O)CNC(=O)c2ccncc2)ccc1O [CBK262013] | 87.9587 | 
67 | N#Cc1cccc(-n2cc(-c3ccc(C(F)(F)F)cc3)nn2)c1 [CBK112957] | 94.2007 | 
68 | O=C1CC2CC3CC2C(Sc2ccccc2)C3O1 (stereo not shown) [CBK016225] | 107.079 | 
69 | Cc1c(S(=O)(=O)Nc2ccc(C(O)(C(F)(F)F)C(F)(F)F)cc2)cnn1-c1ccccc1 [CBK062099] | 110.789 | 
70 | CC(=O)Nc1cc(C(=O)Nc2ccc(Br)cc2)ccc1C [CBK267788] | 136.555 | 
71 | Nc1cccc(-c2ccc(OC3CCNCC3)cc2)c1 [CBK126959T] | 112.538 | 
72 | CCC(CO)Nc1nccnc1-c1cccc(F)c1 (stereo not shown) [CBK036775] | 79.4574 | 
73 | Cc1ccc(S(=O)(=O)Nc2sccc2C(=O)Nc2ccc(F)cc2)cc1 [CBK042302] | 140.093 | 
74 | O=C(CCN1CCCCC1)NC1Cc2ccccc2C1 [CBK200364] | 92.5429 | 
75 | COc1cccc(C(=O)Nc2ccc(-c3noc(-c4ccncc4)n3)cc2)c1 [CBK269892] | 146.141 | 
76 | CC(=O)c1c(-c2cccc3ccccc23)nc2n(CCN3CCCCC3)c3ccccc3n12 [CBK278243C] | 98.0283 | 
77 | O=C(COc1cccc2ccccc12)NNC(=O)C1CCCO1 (stereo not shown) [CBK263007] | 105.638 | 
78 | O=C(COc1ccc(F)cc1)Nc1cccc2[nH]ccc12 [CBK159653] | 141.661 | 
79 | Cc1cn(CC(=O)N2CCC3(CCCNC3)C2)c(=O)[nH]c1=O (stereo not shown) [CBK153231C] | 114.715 | 
